Earlier results, collected in patent publication US9168259B2 (GRÜNENTHAL GMBH, priority 2010, dated 2015).
For at least one compound, name, drawing or mass did not settle the structure.

Conditions: preclinical neuropathy and inflammatory pain models; literature; cited from earlier work

## CCOC(=O)Nc1ccc(NCc2ccc(F)cc2)cc1N [retigabine]
  analgesic activity: analgesic activity
